Structures can show the parent of a compound that is named as a salt. Where two headings read alike, the source gives them in different places. Screen size: about 3,300 compounds; about 60 (2%) showed an effect of 50% or more. This is one part of the list.
Test system: HCoV-OC43
Set-up: species or system RD; HTS, protection from HCoV-OC43 induced cell death, luminescent cell viability (CellCounting-Lite 2.0), inhibition rate
Conditions: 24 h post infection, 1 h compound pre-incubation, 10 µM, inhibitor

SMILES	OC43 Inhibition rate [%]	OC43 Inhibition rate (OC43 Inhibition rate, 24 h) [%]
O=C(O)c1ccnc2ccccc12 [NSC 13138]	-0.7	
NCC(N)C(=O)O (stereo not shown) [2,3-Diaminopropanoic acid hydrochloride]	-1.2	
CCCCC[C@H](CC(=O)NO)C(=O)N[C@H](C(=O)N1CCC[C@H]1CO)C(C)C [Actinonin]	-0.9	
OC[C@H]1O[C@@](CO)(OC[C@@]2(OC[C@@]3(OC[C@@]4(O[C@H]5O[C@H](CO)[C@@H](O)[C@H](O)[C@H]5O)O[C@H](CO)[C@@H](O)[C@@H]4O)O[C@H](CO)[C@@H](O)[C@@H]3O)O[C@H](CO)[C@@H](O)[C@@H]2O)[C@@H](O)[C@@H]1O [1F-Fructofuranosylnystose]	-1.2	
CC1(C)C=Cc2c(-c3c4c(c5ccccc5c3O)OC(C)(C)C=C4)c(O)c3ccccc3c2O1 [Tectol]	6.7	
O=c1c(O)c(-c2ccccc2)oc2cc(O)cc(O)c12 [Galangin]	13.3	
O=C(O)Cc1cccnc1 [3-Pyridineacetic acid]	-1	
O=C1C[C@@H](c2ccc(O[C@@H]3O[C@H](CO)[C@@H](O)[C@H](O)[C@H]3O)cc2)Oc2cc(O[C@@H]3OC[C@](O)(CO)[C@H]3O)ccc21 [Liguiritigenin-7-O-D-apiosyl-4'-O-D-glucoside]	1.2	
CC1(C)CC[C@]2(C(=O)O[C@@H]3O[C@H](CO)[C@@H](O)[C@H](O)[C@H]3O)CC[C@]3(C)C(=CC[C@@H]4[C@@]5(C)CC[C@H](O[C@@H]6O[C@H](C(=O)O)[C@@H](O)[C@H](O[C@@H]7OC[C@@H](O)[C@H](O)[C@H]7O)[C@H]6O)C(C)(C)[C@@H]5CC[C@]43C)[C@@H]2C1 [Momordin IIc]	-0.2	
CC(=O)CC[C@@H](C)O[C@@H]1O[C@@H](C)[C@H](O)C[C@H]1O [Ascr#2]	1.2	
CC(=O)c1ccc2c(c1)C=CC(C)(C)O2 [Demethoxyencecalin]	0.6	
Nc1nc2c(nc(O)n2[C@@H]2O[C@H](CO)[C@@H](O)[C@H]2O)c(=O)[nH]1 [8-Hydroxyguanosine]	-0.9	
CCCCC[C@H](O)CC(=O)CCc1ccc(O)c(OC)c1 [[6]-Gingerol]	-0.2	
O=C(O)C[C@@H]1C(=O)O[C@H]2[C@@H]3OC(=O)c4cc(O)c(O)c(O)c4-c4c(cc(O)c(O)c4O)C(=O)OC[C@H]2O[C@@H](OC(=O)c2cc(O)c(O)c(O)c2)[C@@H]3OC(=O)c2cc(O)c(O)c3c2[C@H]1[C@H](O)C(=O)O3 [Chebulagic acid]	1.9	
C=C[C@H]1CN2CC[C@H]1C[C@@H]2[C@@H](O)c1ccnc2ccc(OC)cc12 [Quinidine hydrochloride monohydrate]		1
O=C(O)C1=CO[C@@H](O[C@@H]2O[C@H](CO)[C@@H](O)[C@H](O)[C@H]2O)[C@H]2[C@@H]1C=C[C@]2(O)CO [Monotropein]	0.5	
C[C@@H]1O[C@@H](O[C@H]2[C@H](OC(=O)[C@]34CCC(C)(C)C[C@H]3C3=CC[C@@H]5[C@@]6(C)C[C@H](O)[C@H](O[C@@H]7O[C@H](CO)[C@@H](O)[C@H](O)[C@H]7O)C(CO)(CO)[C@@H]6CC[C@@]5(C)[C@]3(C)C[C@H]4O)OC[C@H](O)[C@@H]2O)[C@H](O)[C@H](O)[C@H]1O[C@@H]1OC[C@@H](O)[C@H](O[C@@H]2OC[C@](O)(CO)[C@H]2O)[C@H]1O [Platycodin D]	11.1	
CCCCCCCCCCCCCCC(=O)O [Pentadecanoic acid]	-0.1	
COc1ccc(CCO[C@@H]2O[C@H](CO[C@@H]3OC[C@H](O)[C@H](O)[C@H]3O)[C@@H](OC(=O)/C=C/c3ccc(O)c(OC)c3)[C@H](O[C@@H]3O[C@@H](C)[C@H](O)[C@@H](O)[C@H]3O)[C@H]2O)cc1O [Angoroside C]	0.2	
COc1ccc2cc1Oc1ccc(cc1)C[C@H]1c3c(cc4c(c3Oc3cc5c(cc3OC)CCN(C)[C@@H]5C2)OCO4)CCN1C [Cepharanthine]	-0.2	
COc1cc(C(O)C(=O)O)ccc1O (stereo not shown) [Vanillylmandelic acid]	-1.7	
CCC/C=C1\OC(=O)C2=C1CC[C@H](O)[C@H]2O [Senkyunolide I]	-0.4	
OC[C@H]1O[C@@H](Oc2cc3c(O)cc(O)cc3[o+]c2-c2ccc(O)c(O)c2)[C@H](O)[C@@H](O)[C@@H]1O [Kuromanin (chloride)]	-1.3	
C[N+](C)(C)CC(O)CC(=O)O (racemic) [(±)-Carnitine (chloride)]	4.8	
O=C1C[C@@H](C(=O)O)NC(=O)N1 [L-Dihydroorotic acid]	-1.6	
COc1ccc(CC(=O)c2ccc(O)cc2O)cc1 [Ononetin]	-0.5	
c1cn[nH]c1 [1H-pyrazole]	-0.2	
Nc1nc(=O)c2c([nH]1)NCC(CNc1ccc(C(=O)N[C@@H](CCC(=O)O)C(=O)O)cc1)=N2 [Dihydrofolic acid]	-0.3	

SMILES	OC43 Inhibition rate [%]	OC43 Inhibition rate (OC43 Inhibition rate, 24 h) [%]
Cc1ccc(C(=O)O)cc1C [3,4-Dimethylbenzoic acid]	0.5	
O=C(O)C(=O)O [Oxalic acid dihydrate]		-0.6
COc1ccc(-c2coc3cc(O)cc(O)c3c2=O)cc1 [Biochanin A]	-0.7	
O=C(/C=C/C=C/c1ccccc1)CCc1ccccc1 [Alnustone]	1.1	
CC(C)=CCOc1ccc2ccc(=O)oc2c1 [7-Prenyloxycoumarin]	0	
COC1=CC(=O)C[C@@H](C)[C@]12Oc1c(Cl)c(OC)cc(OC)c1C2=O [Griseofulvin]	0.1	
Oc1cccc(O)c1O [Pyrogallol]	-1.9	
CC(C)=CCC[C@](C)(O[C@@H]1O[C@H](CO[C@@H]2O[C@H](CO)[C@@H](O)[C@H](O)[C@H]2O)[C@@H](O)[C@H](O)[C@H]1O)[C@H]1CC[C@]2(C)[C@@H]1[C@H](O)C[C@@H]1[C@@]3(C)CC[C@H](O[C@@H]4O[C@H](CO)[C@@H](O)[C@H](O)[C@H]4O)C(C)(C)[C@@H]3CC[C@]12C [Gypenoside XVII]	-0.5	
NC(N)=NCCCC(N)C(=O)O (racemic) [DL-Arginine]	5	
CC(=O)NCCCC(=O)O [4-Acetamidobutanoic acid]	1	
O=c1[nH]c2ccccc2o1 [2-Benzoxazolinone]	0.6	
C[C@@H]1O[C@@H](O[C@H]2[C@H](O)[C@@H](O)[C@H](O[C@H]3CC[C@]4(C)[C@H]5CC=C6[C@@H]7CC(C)(C)CC[C@]7(CO)[C@@H](O)C[C@@]6(C)[C@]5(C)CC[C@H]4C3(C)C)O[C@@H]2CO[C@@H]2O[C@H](CO)[C@@H](O)[C@H](O)[C@H]2O)[C@H](O)[C@H](O)[C@H]1O [Saikosaponin F]	-1.1	
C[C@H]1O[C@@H](O[C@H]2CC[C@]3(C)[C@H]4C=C[C@]56OC[C@@]7(CCC(C)(C)C[C@H]75)[C@@H](O)C[C@@]6(C)[C@]4(C)CC[C@H]3C2(C)C)[C@H](O)[C@@H](O[C@@H]2O[C@H](CO)[C@@H](O)[C@H](O)[C@H]2O)[C@H]1O [Saikosaponin E]	7.1	
CC(C)=CC[C@@H](OC(=O)C=C(C)C)C1=CC(=O)c2c(O)ccc(O)c2C1=O [β,β-Dimethylacrylshikonin]	-0.4	
C[C@]1(O)C[C@@H](O)[C@]2(O)C=CO[C@@H](O[C@H]3O[C@H](CO)[C@@H](O)[C@H](O)[C@H]3O)[C@@H]21 [Harpagide]	1.1	
CC(C)=CCC1C(=O)C(C(=O)CC(C)C)=C(O)C(O)(CC=C(C)C)C1=O (stereo not shown) [Humulone]	-1	
O=C(/C=C/c1ccc(O)c(O)c1/C=C/c1ccc(O)c(O)c1)O[C@H](Cc1ccc(O)c(O)c1)C(=O)O [Salvianolic acid A]	1.3	
O=C(CO)[C@@H](O)[C@H](O)[C@H](O)CO [D-Fructose]		-0.1
CC1(C)CC[C@]2(C(=O)O)[C@H](O)C[C@]3(C)C(=CC[C@@H]4[C@@]5(C)C[C@H](O)[C@H](O[C@@H]6O[C@H](CO)[C@@H](O)[C@H](O)[C@H]6O)C(CO)(CO)[C@@H]5CC[C@]43C)[C@@H]2C1 [3-O-Beta-D-Glucopyranosylplatycodigenin]	-0.3	
COc1cc2c[n+](C)c3c4cc5c(cc4ccc3c2cc1OC)OCO5 [Nitidine (chloride)]	-0.2	
NCCC(=O)O [β-Alanine]	-3.6	
CC(=O)Cc1cc(=O)c2c(C)cc(O)c([C@@H]3O[C@H](CO)[C@@H](O)[C@H](O)[C@H]3O)c2o1 [Aloesin]	-0.5	
CC(=O)c1ccccc1 [Acetophenone]	0	
COc1cc(C[C@H]2C(=O)OC[C@@H]2Cc2ccc(OC)c(OC)c2)ccc1O [Arctigenin]	-6.1	
CC[C@@]1([C@H]2O[C@H]([C@H]3O[C@@](O)(CO)[C@H](C)C[C@@H]3C)C[C@H]2C)CC[C@H]([C@@]2(C)CC[C@]3(C[C@H](O)[C@@H](C)[C@@H]([C@H](C)[C@H](OC)[C@@H](C)C(=O)O)O3)O2)O1 [Monensin sodium salt]	-0.8	
C[C@@]12CC[C@@H]3[C@@](CC[C@H]4[C@@]3(C)CCC[C@@]4(C)C(=O)O)(CC1=O)C2 [Isosteviol]	-1.1	
Oc1cc(O)cc(-c2cc3ccc(O)cc3o2)c1 [Moracin M]	-0.7	

As a working copy, 4 of the compounds above.
SMILES	OC43 Inhibition rate [%]	OC43 Inhibition rate (OC43 Inhibition rate, 24 h) [%]
O=C(O)C(=O)O [Oxalic acid dihydrate]		-0.6
COc1ccc(-c2coc3cc(O)cc(O)c3c2=O)cc1 [Biochanin A]	-0.7	
O=C(/C=C/C=C/c1ccccc1)CCc1ccccc1 [Alnustone]	1.1	
CC(C)=CCOc1ccc2ccc(=O)oc2c1 [7-Prenyloxycoumarin]	0	
